{"source": "the supplement of paper PMC11098740", "note": "The other results are listed elsewhere or left out. Single values are uncertain, as repeats are few or missing.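 Test system: a mixed pool of 41 HAP1 clones in which 61 cancer-associated proteins carry fluorescent tags inserted into introns, and each clone is identified from its image pattern. Read-outs are compared with DMSO-treated control wells. The BRD4 degrader dBET6 served as the positive control.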"}
{"target": "BRD4 (intron 10 mScarlet tag, HAP1) (UniProt O60885)", "assay": "BRD4 median nuclear fluorescence intensity change vs DMSO (log2 fold change); higher = more BRD4 protein", "conditions": "6 h"}
{"compound": "Clc1ccc2c(c1)C(N1CCNCC1)=Nc1ccccc1O2", "note": "[amoxapine] (10.00000745 µM)", "BRD4 median nuclear fluorescence intensity change (log2)": 0.147}
{"compound": "CC[C@@H](CO)NCCN[C@@H](CC)CO", "note": "[ethambutol] (10 µM)", "BRD4 median nuclear fluorescence intensity change (log2)": 0.00609}
{"compound": "CC[C@]1(O)C[C@@H]2CN(CCc3c([nH]c4ccccc34)[C@@](C(=O)OC)(c3cc4c(cc3OC)N(C)[C@H]3[C@@](O)(C(=O)OC)[C@H](OC(C)=O)[C@]5(CC)C=CCN6CC[C@]43[C@@H]65)C2)C1", "note": "[vinblastine (sulfate)] (10 µM)", "BRD4 median nuclear fluorescence intensity change (log2)": 0.118}
{"compound": "C[C@]12CC[C@@H]3c4ccc(O)cc4C[C@@H](CCCCCCCCC[S+]([O-])CCCC(F)(F)C(F)(F)F)[C@H]3[C@@H]1CC[C@@H]2O", "note": "(some centres undefined) [fulvestrant] (20 µM)", "BRD4 median nuclear fluorescence intensity change (log2)": -0.0225}
{"compound": "CC1(C)O[C@@H]2[C@@H](CO[C@@]3(COS(N)(=O)=O)OC(C)(C)O[C@@H]23)O1", "note": "[topiramate] (10 µM)", "BRD4 median nuclear fluorescence intensity change (log2)": 0.0602}
{"compound": "CC(=O)Nc1nnc(S(N)(=O)=O)s1", "note": "[acetazolamide] (10 µM)", "BRD4 median nuclear fluorescence intensity change (log2)": 0.0453}
{"compound": "Nc1nc2c(ncn2COC(CO)CO)c(=O)[nH]1", "note": "[ganciclovir] (10 µM)", "BRD4 median nuclear fluorescence intensity change (log2)": 0.0193}
{"compound": "CC(C)(Sc1cc(C(C)(C)C)c(O)c(C(C)(C)C)c1)Sc1cc(C(C)(C)C)c(O)c(C(C)(C)C)c1", "note": "[probucol] (10 µM)", "BRD4 median nuclear fluorescence intensity change (log2)": 0.0572}
{"compound": "C#C[C@]1(O)CC[C@H]2[C@@H]3CCc4cc(O)ccc4[C@H]3CC[C@@]21C", "note": "[ethinyl estradiol] (9.99913 µM)", "BRD4 median nuclear fluorescence intensity change (log2)": 0.17}
{"compound": "N#CC[C@H](C1CCCC1)n1cc(-c2ncnc3[nH]ccc23)cn1", "note": "[ruxolitinib] (20 µM)", "BRD4 median nuclear fluorescence intensity change (log2)": 0.316}
{"compound": "CC(C)C[C@H](NC(=O)CNC(=O)c1cc(Cl)ccc1Cl)B(O)O", "note": "[ixazomib] (1 µM)", "BRD4 median nuclear fluorescence intensity change (log2)": -0.0767}
{"compound": "NCCNc1ccc(NCCN)c2c1C(=O)c1ccncc1C2=O", "note": "[pixantrone] (10 µM)", "BRD4 median nuclear fluorescence intensity change (log2)": 0.0327}
{"compound": "CCS(=O)(=O)CCn1c([N+](=O)[O-])cnc1C", "note": "[tinidazole] (10 µM)", "BRD4 median nuclear fluorescence intensity change (log2)": 0.00376}
{"compound": "N=C(N)NC(=O)c1nc(Cl)c(N)nc1N", "note": "[amiloride] (9.99961 µM)", "BRD4 median nuclear fluorescence intensity change (log2)": 0.0486}
{"compound": "COCCCC/C(=N\\OCCN)c1ccc(C(F)(F)F)cc1", "note": "[fluvoxamine] (9.99978 µM)", "BRD4 median nuclear fluorescence intensity change (log2)": 0.00516}
{"compound": "CCCCNc1cc(C(=O)O)cc(S(N)(=O)=O)c1Oc1ccccc1", "note": "[bumetanide] (10.00031521 µM)", "BRD4 median nuclear fluorescence intensity change (log2)": 0.0188}
{"compound": "C[C@@H]1O[C@@H]1P(=O)(O)O", "note": "[fosfomycin] (10 µM)", "BRD4 median nuclear fluorescence intensity change (log2)": 0.127}
{"compound": "N[C@@H](Cc1cc(I)c(Oc2ccc(O)c(I)c2)c(I)c1)C(=O)O", "note": "[liothyronine] (10 µM)", "BRD4 median nuclear fluorescence intensity change (log2)": -0.0354}
{"compound": "C[C@](N)(Cc1ccc(O)cc1)C(=O)O", "note": "[metyrosine] (10 µM)", "BRD4 median nuclear fluorescence intensity change (log2)": 0.0811}
{"compound": "CCOC(=O)C1=C[C@@H](OC(CC)CC)[C@H](NC(C)=O)[C@@H](N)C1", "note": "[oseltamivir] (9.9999 µM)", "BRD4 median nuclear fluorescence intensity change (log2)": 0.0345}
{"compound": "O=NN(CCCl)C(=O)NCCCl", "note": "[carmustine] (20 µM)", "BRD4 median nuclear fluorescence intensity change (log2)": -0.0298}
{"compound": "CN(C)C(=N)NC(=N)N", "note": "[metformin] (10 µM)", "BRD4 median nuclear fluorescence intensity change (log2)": 0.0688}
{"compound": "CNS(=O)(=O)Cc1ccc2[nH]cc(CCN(C)C)c2c1", "note": "[sumatriptan] (10.0004 µM)", "BRD4 median nuclear fluorescence intensity change (log2)": 0.0397}
{"compound": "Cc1nc(Nc2ncc(C(=O)Nc3c(C)cccc3Cl)s2)cc(N2CCN(CCO)CC2)n1", "note": "[dasatinib] (0.0213961 µM)", "BRD4 median nuclear fluorescence intensity change (log2)": 0.095}
{"compound": "O=C1c2cccc3c2[C@H](CCC3)CN1[C@@H]1CN2CCC1CC2", "note": "[palonosetron] (10 µM)", "BRD4 median nuclear fluorescence intensity change (log2)": 0.0501}
{"compound": "CC(C)NCC(O)c1ccc(O)c(O)c1", "note": "(centres undefined) [isoproterenol] (10 µM)", "BRD4 median nuclear fluorescence intensity change (log2)": 0.0737}
{"compound": "COc1cc(C(=O)NS(=O)(=O)c2ccccc2C)ccc1Cc1cn(C)c2ccc(NC(=O)OC3CCCC3)cc12", "note": "[zafirlukast] (10.0009 µM)", "BRD4 median nuclear fluorescence intensity change (log2)": 0.0638}
{"compound": "OC(c1cc(C(F)(F)F)nc2c(C(F)(F)F)cccc12)C1CCCCN1", "note": "(centres undefined) [mefloquine] (10 µM)", "BRD4 median nuclear fluorescence intensity change (log2)": 0.0285}
{"compound": "CCN(CC)Cc1cc(Nc2ccnc3cc(Cl)ccc23)ccc1O", "note": "[amodiaquine] (10.0001 µM)", "BRD4 median nuclear fluorescence intensity change (log2)": 0.0709}
{"compound": "O=c1n(CCCN2CCN(c3cccc(Cl)c3)CC2)nc2ccccn12", "note": "[trazodone] (10 µM)", "BRD4 median nuclear fluorescence intensity change (log2)": 0.0948}
{"compound": "Nc1ncn([C@@H]2O[C@H](CO)[C@@H](O)[C@H]2O)c(=O)n1", "note": "[azacitidine] (10 µM)", "BRD4 median nuclear fluorescence intensity change (log2)": -0.201}
{"compound": "CC(=O)S[C@@H]1CC2=CC(=O)CC[C@]2(C)[C@H]2CC[C@@]3(C)[C@@H](CC[C@@]34CCC(=O)O4)[C@H]12", "note": "[spironolactone] (10.00018646 µM)", "BRD4 median nuclear fluorescence intensity change (log2)": 0.0472}
{"compound": "C=CC[C@@H]1/C=C(\\C)C[C@H](C)C[C@H](OC)[C@H]2O[C@@](O)(C(=O)C(=O)N3CCCC[C@H]3C(=O)O[C@H](/C(C)=C/[C@@H]3CC[C@@H](O)[C@H](OC)C3)[C@H](C)[C@@H](O)CC1=O)[C@H](C)C[C@@H]2OC", "note": "[tacrolimus] (20 µM)", "BRD4 median nuclear fluorescence intensity change (log2)": -0.0181}
{"compound": "Nc1ccn([C@@H]2O[C@H](CO)[C@@H](O)[C@@H]2O)c(=O)n1", "note": "[cytarabine] (0.316228 µM)", "BRD4 median nuclear fluorescence intensity change (log2)": 0.187}
{"compound": "CC[C@H]1OC(=O)[C@H](C)[C@@H](O[C@H]2C[C@@](C)(OC)[C@@H](O)[C@H](C)O2)[C@H](C)[C@@H](O[C@@H]2O[C@H](C)C[C@H](N(C)C)[C@H]2O)[C@](C)(O)C[C@@H](C)CN(C)[C@H](C)[C@@H](O)[C@]1(C)O", "note": "[azithromycin] (10.0002 µM)", "BRD4 median nuclear fluorescence intensity change (log2)": -0.00176}
{"compound": "COc1cc(C(=O)NCc2ccc(OCCN(C)C)cc2)cc(OC)c1OC", "note": "[trimethobenzamide] (10 µM)", "BRD4 median nuclear fluorescence intensity change (log2)": 0.084}
{"compound": "O=C1[C@H](CC[C@H](O)c2ccc(F)cc2)[C@@H](c2ccc(O)cc2)N1c1ccc(F)cc1", "note": "[ezetimibe] (10.00060281 µM)", "BRD4 median nuclear fluorescence intensity change (log2)": 0.105}
{"compound": "NCCc1ccc(O)c(O)c1", "note": "[dopamine] (10.0004 µM)", "BRD4 median nuclear fluorescence intensity change (log2)": 0.0125}
{"compound": "CC1=C(/C=C/C(C)=C/C=C/C(C)=C/C(=O)O)C(C)(C)CCC1", "note": "[tretinoin] (20 µM)", "BRD4 median nuclear fluorescence intensity change (log2)": -0.0242}
